Experimental data taken from the supplement of paper PMC12823440, “Inhibitors supercharge kinase turnover through native proteolytic circuits” (Nature, 2025).
Where a name gives a salt, the structure may show the parent alone. The list shows a part of the results. The calls rarely recur for the same compound in another form.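 In K562 cells expressing nanoluciferase-fused kinases, luminescence was recorded at 4 h intervals between 2 and 18 h, normalized as percent of control with DMSO at 100% and a positive control at 0%. A significant (2 sigma) signal drop marks a time point as decreased. The authors' rule for a hit is not shown and takes in more than the number of time points.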

Amino acid sequences for entries named in this document (tags omitted). A change or cut given only in a name is not applied to a line headed by its entry.
UniProt Q92630: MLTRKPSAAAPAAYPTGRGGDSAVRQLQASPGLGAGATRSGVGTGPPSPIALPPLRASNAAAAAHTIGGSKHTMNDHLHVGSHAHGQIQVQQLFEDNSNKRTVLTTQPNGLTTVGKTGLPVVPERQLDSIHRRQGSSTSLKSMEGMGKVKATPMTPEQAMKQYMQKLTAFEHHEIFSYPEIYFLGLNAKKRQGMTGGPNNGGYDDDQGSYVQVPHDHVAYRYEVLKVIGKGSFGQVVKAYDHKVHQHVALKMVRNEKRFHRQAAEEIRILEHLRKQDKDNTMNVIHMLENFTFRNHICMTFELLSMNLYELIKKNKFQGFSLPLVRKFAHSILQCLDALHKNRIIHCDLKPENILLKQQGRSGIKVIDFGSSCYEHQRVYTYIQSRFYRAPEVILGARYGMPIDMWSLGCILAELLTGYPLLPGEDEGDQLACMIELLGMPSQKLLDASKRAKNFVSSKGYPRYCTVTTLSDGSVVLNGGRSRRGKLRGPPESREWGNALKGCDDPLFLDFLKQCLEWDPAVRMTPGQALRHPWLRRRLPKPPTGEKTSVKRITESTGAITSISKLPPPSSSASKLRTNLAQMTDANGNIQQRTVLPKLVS

molecular target: DYRK2 (UniProt Q92630); test: number of time points (of 5) at which kinase-Nluc abundance scored as decreased, DMSO-normalised (count); higher = more persistent destabilization; conditions: K562; 2-18 h

| SMILES | number of time points |
| --- | --- |
| Cc1[nH]c(/C=C2\C(=O)Nc3ccccc32)c(C)c1CCC(=O)O [(Z)-Orantinib] (10 µM) | 0 |
| Cc1ccc(C(=O)Nc2ccc(Oc3cc4cnn(C)c4cc3-c3cn[nH]c3)c(F)c2)c(=O)n1-c1ccc(F)cc1 [Merestinib] (2.5 µM) | 0 |
| NS(=O)(=O)c1ccc(-n2nc(C(F)(F)F)cc2-c2ccc(Cl)cc2)cc1 (10 µM) | 0 |
| CN1CCN(c2cnc3c(C4CCN(C(=O)c5ccc(OC(F)(F)F)cc5N)CC4)ncnc3c2)CC1 (10 µM) | 0 |
| COc1ccc2c(OCc3nnc4ccc(-c5ccccc5)nn34)ccnc2c1 (2 µM) | 0 |
| NC(=O)c1ccc2[nH]ccc2c1 (10 µM) | 0 |
| CNc1nc(Nc2ccc(C(=O)N3CCOCC3)cc2OC)nc2[nH]cc(Cl)c12 (2.5 µM) | 0 |

molecular target: EGFR (UniProt P00533); test: as above; conditions: K562; 2-18 h

| SMILES | number of time points |
| --- | --- |
| Cn1cnc2c(F)c(Nc3ccc(Br)cc3Cl)c(C(=O)NOCCO)cc21 [Selumetinib (sulfate)] (10 µM) | 0 |
| COc1ncc(Cl)cc1S(=O)(=O)Nc1ccc(F)c(C#Cc2cnc(N)nc2)c1F (2.5 µM) | 1 |
| CNC(=O)c1cc(COc2nnc(Nc3ccc(Cl)cc3)c3ccoc23)ccn1 [Telatinib] (10 µM) | 0 |
| CC(C)(C)c1cc(O)ccc1O (10 µM) | 0 |
| Cn1cnc2c(F)c(Nc3ccc(Br)cc3Cl)c(C(=O)NOCCO)cc21 [Selumetinib] (10 µM) | 0 |
| Cc1c(-c2c(F)cc(C(N)=O)c3[nH]c4c(c23)CC[C@H](C(C)(C)O)C4)cccc1-n1c(=O)c2cccc(F)c2n(C)c1=O (2.5 µM) | 0 |
| O=C(CSC1=NCCN1)NC1CCCCCC1 [ICCB-19 (hydrochloride)] (2.5 µM) | 0 |
| Cn1cc(-c2ccc3nnc(Sc4ccc5ncccc5c4)n3n2)cn1 (10 µM) | 0 |
| Cc1ccccc1-c1c2nccc(-c3ccc(F)cc3F)c2cc[n+]1[O-] (10 µM) | 0 |
| Cn1nccc1Nc1nccc(-c2ccn([C@H](CO)c3ccc(Cl)c(F)c3)c(=O)c2)n1 [Ravoxertinib hydrochloride] (10 µM) | 0 |
| OCCn1cc(-c2ccc3c(c2)CC/C3=N\O)c(-c2ccncc2)n1 (10 µM) | 0 |
| NC(=O)c1nnc(N[C@@H]2CCCC[C@@H]2N)nc1Nc1cccc2cc[nH]c12 (10 µM) | 0 |
| O=C(NOCC(O)CO)c1cc(Br)c(F)c(F)c1Nc1ccc(I)cc1F (configuration not stated) (2.5 µM) | 0 |
| CN(C)CCSSCCNC(=O)C1CCN(C(=O)CSc2ccc(Cl)cc2)CC1 (10 µM) | 0 |
| CCC(C)N1c2ccccc2C(=O)N(C)c2cnc(Nc3ccc(C(=O)N4CCC(N5CCN(C)CC5)CC4)cc3OC)nc21 (configuration not stated) (2.5 µM) | 0 |
| CN(C)CCCOc1ccc(-c2ccc3ncc4c(c3c2)n(C2CCOCC2)c(=O)n4C)cn1 (2 µM) | 0 |
| COc1ccc(-c2ccc3c(N4CCOCC4)nc(N4C[C@@H](C)O[C@@H](C)C4)nc3n2)cc1CO (2.5 µM) | 0 |
| CC#CC(=O)N1CC[C@@H](n2c(=O)n(-c3ccc(Oc4ccccc4)cc3)c3c(N)ncnc32)C1 [Tirabrutinib (hydrochloride)] (10 µM) | 0 |

| SMILES | number of time points |
| --- | --- |
| NC(=O)c1ccc(-c2nc(-c3ccc4c(c3)OCCO4)c(-c3ccccn3)[nH]2)cc1 (10 µM) | 0 |
| FC(F)(F)c1ccc(CNc2ccc(Cc3c[nH]c4ncccc34)cn2)cc1 (10 µM) | 0 |
| COc1ccc(Cl)c(Nc2nc3ccccc3nc2NS(=O)(=O)c2cccc(NC(=O)C(C)(C)N)c2)c1 [Pilaralisib] (10 µM) | 0 |
| Oc1ccc(Nc2nc(-c3ccc(Cl)cc3)cs2)cc1 (10 µM) | 0 |
| Cc1nc(-c2cn3c(n2)-c2ccc(-c4cnn(C(C)(C)C(N)=O)c4)cc2OCC3)n(C(C)C)n1 [Taselisib] (10 µM) | 0 |
| COc1cccc(OC)c1C(=O)OCc1cc(O)ccc1O[C@@H]1O[C@H](CO)[C@@H](O)[C@H](O)[C@H]1O [Curculigoside] (10 µM) | 0 |
| CCc1cc2c(cc1N1CCC(N3CCOCC3)CC1)C(C)(C)c1[nH]c3cc(C#N)ccc3c1C2=O [Alectinib] (10 µM) | 0 |
| O=C(O)CCC(=O)Nc1ccc(Br)cn1 [Bikinin] (10 µM) | 0 |
| COc1cc(Nc2ncc(F)c(Nc3ccc4c(n3)N(COP(=O)(O)O)C(=O)C(C)(C)O4)n2)cc(OC)c1OC [Fostamatinib (disodium hexahydrate)] (10 µM) | 1 |
| Nc1cc(C(F)(F)F)c(-c2cc(N3CCOCC3)nc(N3CCOCC3)n2)cn1 [Buparlisib (Hydrochloride)] (2.5 µM) | 0 |
| O=C(NCCN1CCCC1)c1cc(-c2ccc(CN3CCOCC3)cc2)nc2ccc(F)cc12 (10 µM) | 0 |
| Cc1ccc(C(=O)Nc2ccc(Oc3cc4cnn(C)c4cc3-c3cn[nH]c3)c(F)c2)c(=O)n1-c1ccc(F)cc1 [Merestinib] (2.5 µM) | 0 |
| NS(=O)(=O)c1ccc(-n2nc(C(F)(F)F)cc2-c2ccc(Cl)cc2)cc1 (10 µM) | 0 |
| CN1CCN(c2cnc3c(C4CCN(C(=O)c5ccc(OC(F)(F)F)cc5N)CC4)ncnc3c2)CC1 (10 µM) | 0 |
| COc1ccc2c(OCc3nnc4ccc(-c5ccccc5)nn34)ccnc2c1 (2 µM) | 0 |
| NC(=O)c1ccc2[nH]ccc2c1 (10 µM) | 0 |
| CNc1nc(Nc2ccc(C(=O)N3CCOCC3)cc2OC)nc2[nH]cc(Cl)c12 (2.5 µM) | 0 |
